Results are given in words; binding and its absence hold for the method and conditions named. In cells and extracts the contact can be indirect. Some results given as binding are weak or reduced against the parent protein; the word gives no strength.
What was measured:
Assay in all cases: co-IP
[1] = target: EGFP-AKAP11 (human) (UniProt Q9UKA4)
[2] = target: EGFP-AKAP11-D357A (human) (UniProt Q9UKA4)
[3] = target: EGFP-AKAP11-D360A (human) (UniProt Q9UKA4)
[4] = target: EGFP-AKAP11-E354A (human) (UniProt Q9UKA4)
[5] = target: EGFP-AKAP11-E354A/D357A/D360A (human) (UniProt Q9UKA4)
[6] = target: human AKAP11-EGFP (human) (UniProt Q9UKA4)

The chains behind the UniProt entries cited, without tags or fusion partners. Where a name states a change or a piece, a line headed by the entry shows the natural chain unless it says otherwise.
UniProt Q9UKA4: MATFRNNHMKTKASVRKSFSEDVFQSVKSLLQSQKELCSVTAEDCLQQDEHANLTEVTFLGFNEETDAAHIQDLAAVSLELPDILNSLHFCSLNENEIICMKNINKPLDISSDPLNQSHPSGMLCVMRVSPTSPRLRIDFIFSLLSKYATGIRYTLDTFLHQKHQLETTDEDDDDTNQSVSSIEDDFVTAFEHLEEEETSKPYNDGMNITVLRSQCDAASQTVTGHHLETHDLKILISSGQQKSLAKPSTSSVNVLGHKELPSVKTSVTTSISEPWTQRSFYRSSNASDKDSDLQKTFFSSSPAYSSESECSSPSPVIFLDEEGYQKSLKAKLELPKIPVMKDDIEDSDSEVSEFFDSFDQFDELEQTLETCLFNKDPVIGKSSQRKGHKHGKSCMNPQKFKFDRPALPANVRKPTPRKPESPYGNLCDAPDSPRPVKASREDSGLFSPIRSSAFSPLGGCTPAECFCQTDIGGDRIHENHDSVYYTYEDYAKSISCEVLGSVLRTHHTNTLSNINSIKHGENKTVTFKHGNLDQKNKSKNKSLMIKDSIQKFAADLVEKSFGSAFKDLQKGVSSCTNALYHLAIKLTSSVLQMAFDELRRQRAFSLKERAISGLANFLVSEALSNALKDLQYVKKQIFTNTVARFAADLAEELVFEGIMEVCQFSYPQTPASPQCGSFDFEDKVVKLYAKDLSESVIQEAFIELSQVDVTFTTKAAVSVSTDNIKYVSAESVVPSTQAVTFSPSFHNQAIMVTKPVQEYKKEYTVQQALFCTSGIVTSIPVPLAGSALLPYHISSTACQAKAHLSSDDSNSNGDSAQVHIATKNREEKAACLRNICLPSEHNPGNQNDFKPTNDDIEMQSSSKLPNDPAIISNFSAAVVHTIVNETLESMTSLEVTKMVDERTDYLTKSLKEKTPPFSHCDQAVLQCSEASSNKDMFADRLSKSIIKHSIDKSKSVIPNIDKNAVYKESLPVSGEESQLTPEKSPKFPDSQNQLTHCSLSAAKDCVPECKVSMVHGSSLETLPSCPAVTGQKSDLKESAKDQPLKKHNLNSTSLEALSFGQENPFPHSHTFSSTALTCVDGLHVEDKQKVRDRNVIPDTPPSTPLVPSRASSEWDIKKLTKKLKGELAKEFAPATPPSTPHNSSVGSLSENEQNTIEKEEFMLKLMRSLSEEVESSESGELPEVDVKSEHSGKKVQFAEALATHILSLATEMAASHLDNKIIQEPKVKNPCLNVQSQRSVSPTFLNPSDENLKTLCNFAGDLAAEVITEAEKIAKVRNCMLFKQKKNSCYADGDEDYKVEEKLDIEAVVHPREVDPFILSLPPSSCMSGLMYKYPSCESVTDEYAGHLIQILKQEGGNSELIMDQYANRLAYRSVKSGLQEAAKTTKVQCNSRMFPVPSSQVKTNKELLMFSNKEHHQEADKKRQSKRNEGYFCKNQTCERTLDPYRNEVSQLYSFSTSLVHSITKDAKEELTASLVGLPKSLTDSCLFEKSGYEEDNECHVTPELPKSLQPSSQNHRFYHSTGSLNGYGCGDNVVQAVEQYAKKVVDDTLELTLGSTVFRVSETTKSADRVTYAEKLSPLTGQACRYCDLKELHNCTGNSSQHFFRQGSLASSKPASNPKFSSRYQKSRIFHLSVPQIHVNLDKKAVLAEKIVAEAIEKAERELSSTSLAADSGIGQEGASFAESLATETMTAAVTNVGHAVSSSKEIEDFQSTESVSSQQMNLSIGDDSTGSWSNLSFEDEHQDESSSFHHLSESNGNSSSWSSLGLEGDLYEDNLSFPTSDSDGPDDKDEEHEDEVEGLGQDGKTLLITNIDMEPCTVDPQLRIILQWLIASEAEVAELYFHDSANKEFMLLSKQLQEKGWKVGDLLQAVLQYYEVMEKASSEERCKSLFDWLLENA
UniProt O95292: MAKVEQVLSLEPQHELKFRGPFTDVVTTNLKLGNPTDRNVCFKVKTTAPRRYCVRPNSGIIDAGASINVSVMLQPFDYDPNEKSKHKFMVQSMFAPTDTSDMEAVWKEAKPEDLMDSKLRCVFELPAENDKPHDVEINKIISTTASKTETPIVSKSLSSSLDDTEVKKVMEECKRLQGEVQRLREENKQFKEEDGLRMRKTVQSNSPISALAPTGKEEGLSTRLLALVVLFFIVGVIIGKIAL
UniProt P10644: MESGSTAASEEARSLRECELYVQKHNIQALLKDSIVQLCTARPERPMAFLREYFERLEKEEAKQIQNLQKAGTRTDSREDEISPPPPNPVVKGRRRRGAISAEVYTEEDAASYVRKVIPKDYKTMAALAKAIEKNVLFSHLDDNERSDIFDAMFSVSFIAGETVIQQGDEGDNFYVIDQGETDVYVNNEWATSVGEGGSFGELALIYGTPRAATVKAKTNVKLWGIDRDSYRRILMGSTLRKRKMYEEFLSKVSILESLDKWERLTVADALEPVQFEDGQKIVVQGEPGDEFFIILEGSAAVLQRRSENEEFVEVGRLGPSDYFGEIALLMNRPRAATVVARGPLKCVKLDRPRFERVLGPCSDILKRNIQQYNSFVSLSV

Molecule: vesicle-associated membrane protein-associated protein VAP-B (from UniProt O95292 1-243)
- binding [1]: binds
- binding [2]: binds
- binding [3]: binds
- binding [4]: binds
- binding [5]: binds weakly
- binding [6]: binds

Molecule: PKA R1-α (PRKAR1A) (from UniProt P10644 1-381)
- binding [6]: binds

B1: ABCD3/PMP70 (protein, UniProt P28288 1-659)
chain: MAAFSKYLTARNSSLAGAAFLLLCLLHKRRRALGLHGKKSGKPPLQNNEKEGKKERAVVDKVFFSRLIQILKIMVPRTFCKETGYLVLIAVMLVSRTYCDVWMIQNGTLIESGIIGRSRKDFKRYLLNFIAAMPLISLVNNFLKYGLNELKLCFRVRLTKYLYEEYLQAFTYYKMGNLDNRIANPDQLLTQDVEKFCNSVVDLYSNLSKPFLDIVLYIFKLTSAIGAQGPASMMAYLVVSGLFLTRLRRPIGKMTITEQKYEGEYRYVNSRLITNSEEIAFYNGNKREKQTVHSVFRKLVEHLHNFILFRFSMGFIDSIIAKYLATVVGYLVVSRPFLDLSHPRHLKSTHSELLEDYYQSGRMLLRMSQALGRIVLAGREMTRLAGFTARITELMQVLKDLNHGKYERTMVSQQEKGIEGVQVIPLIPGAGEIIIADNIIKFDHVPLATPNGDVLIRDLNFEVRSGANVLICGPNGCGKSSLFRVLGELWPLFGGRLTKPERGKLFYVPQRPYMTLGTLRDQVIYPDGREDQKRKGISDLVLKEYLDNVQLGHILEREGGWDSVQDWMDVLSGGEKQRMAMARLFYHKPQFAILDECTSAVSVDVEGYIYSHCRKVGITLFTVSHRKSLWKHHEYYLHMDGRGNYEFKQITEDTVEFGS
- binding [1]: binds
- binding [2]: binds
- binding [3]: binds
- binding [4]: binds
- binding [5]: binds
- binding [6]: binds

From article doi:10.1101/2025.04.25.650548
